## Percent effect of library compounds

Protein sequences, listed by entry. Tags and fused reporters are not part of them. Residues count along the entry.
UniProt Q4DA54, 1-478: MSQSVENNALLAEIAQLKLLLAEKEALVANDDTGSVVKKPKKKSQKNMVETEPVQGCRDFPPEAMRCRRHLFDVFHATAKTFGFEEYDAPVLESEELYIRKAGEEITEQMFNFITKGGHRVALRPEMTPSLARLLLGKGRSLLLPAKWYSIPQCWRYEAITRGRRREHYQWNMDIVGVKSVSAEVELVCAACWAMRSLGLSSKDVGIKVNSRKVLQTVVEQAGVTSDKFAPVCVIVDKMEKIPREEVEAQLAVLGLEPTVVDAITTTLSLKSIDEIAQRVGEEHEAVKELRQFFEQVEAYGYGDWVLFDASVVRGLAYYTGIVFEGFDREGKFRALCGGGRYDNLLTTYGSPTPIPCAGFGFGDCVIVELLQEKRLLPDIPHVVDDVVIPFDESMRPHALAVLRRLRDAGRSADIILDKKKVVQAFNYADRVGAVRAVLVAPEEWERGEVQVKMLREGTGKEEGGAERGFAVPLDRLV
UniProt P9WFT3, whole entry: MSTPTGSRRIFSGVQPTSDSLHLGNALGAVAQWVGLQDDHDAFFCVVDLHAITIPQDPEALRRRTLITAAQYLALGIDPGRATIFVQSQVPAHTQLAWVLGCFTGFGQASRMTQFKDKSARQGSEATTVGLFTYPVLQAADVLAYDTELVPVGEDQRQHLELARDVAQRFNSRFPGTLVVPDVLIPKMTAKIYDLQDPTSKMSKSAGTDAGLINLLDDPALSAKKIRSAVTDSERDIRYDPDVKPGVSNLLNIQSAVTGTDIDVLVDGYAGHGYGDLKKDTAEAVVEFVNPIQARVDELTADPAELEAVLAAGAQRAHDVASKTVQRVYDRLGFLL
UniProt I6X8D2, whole entry: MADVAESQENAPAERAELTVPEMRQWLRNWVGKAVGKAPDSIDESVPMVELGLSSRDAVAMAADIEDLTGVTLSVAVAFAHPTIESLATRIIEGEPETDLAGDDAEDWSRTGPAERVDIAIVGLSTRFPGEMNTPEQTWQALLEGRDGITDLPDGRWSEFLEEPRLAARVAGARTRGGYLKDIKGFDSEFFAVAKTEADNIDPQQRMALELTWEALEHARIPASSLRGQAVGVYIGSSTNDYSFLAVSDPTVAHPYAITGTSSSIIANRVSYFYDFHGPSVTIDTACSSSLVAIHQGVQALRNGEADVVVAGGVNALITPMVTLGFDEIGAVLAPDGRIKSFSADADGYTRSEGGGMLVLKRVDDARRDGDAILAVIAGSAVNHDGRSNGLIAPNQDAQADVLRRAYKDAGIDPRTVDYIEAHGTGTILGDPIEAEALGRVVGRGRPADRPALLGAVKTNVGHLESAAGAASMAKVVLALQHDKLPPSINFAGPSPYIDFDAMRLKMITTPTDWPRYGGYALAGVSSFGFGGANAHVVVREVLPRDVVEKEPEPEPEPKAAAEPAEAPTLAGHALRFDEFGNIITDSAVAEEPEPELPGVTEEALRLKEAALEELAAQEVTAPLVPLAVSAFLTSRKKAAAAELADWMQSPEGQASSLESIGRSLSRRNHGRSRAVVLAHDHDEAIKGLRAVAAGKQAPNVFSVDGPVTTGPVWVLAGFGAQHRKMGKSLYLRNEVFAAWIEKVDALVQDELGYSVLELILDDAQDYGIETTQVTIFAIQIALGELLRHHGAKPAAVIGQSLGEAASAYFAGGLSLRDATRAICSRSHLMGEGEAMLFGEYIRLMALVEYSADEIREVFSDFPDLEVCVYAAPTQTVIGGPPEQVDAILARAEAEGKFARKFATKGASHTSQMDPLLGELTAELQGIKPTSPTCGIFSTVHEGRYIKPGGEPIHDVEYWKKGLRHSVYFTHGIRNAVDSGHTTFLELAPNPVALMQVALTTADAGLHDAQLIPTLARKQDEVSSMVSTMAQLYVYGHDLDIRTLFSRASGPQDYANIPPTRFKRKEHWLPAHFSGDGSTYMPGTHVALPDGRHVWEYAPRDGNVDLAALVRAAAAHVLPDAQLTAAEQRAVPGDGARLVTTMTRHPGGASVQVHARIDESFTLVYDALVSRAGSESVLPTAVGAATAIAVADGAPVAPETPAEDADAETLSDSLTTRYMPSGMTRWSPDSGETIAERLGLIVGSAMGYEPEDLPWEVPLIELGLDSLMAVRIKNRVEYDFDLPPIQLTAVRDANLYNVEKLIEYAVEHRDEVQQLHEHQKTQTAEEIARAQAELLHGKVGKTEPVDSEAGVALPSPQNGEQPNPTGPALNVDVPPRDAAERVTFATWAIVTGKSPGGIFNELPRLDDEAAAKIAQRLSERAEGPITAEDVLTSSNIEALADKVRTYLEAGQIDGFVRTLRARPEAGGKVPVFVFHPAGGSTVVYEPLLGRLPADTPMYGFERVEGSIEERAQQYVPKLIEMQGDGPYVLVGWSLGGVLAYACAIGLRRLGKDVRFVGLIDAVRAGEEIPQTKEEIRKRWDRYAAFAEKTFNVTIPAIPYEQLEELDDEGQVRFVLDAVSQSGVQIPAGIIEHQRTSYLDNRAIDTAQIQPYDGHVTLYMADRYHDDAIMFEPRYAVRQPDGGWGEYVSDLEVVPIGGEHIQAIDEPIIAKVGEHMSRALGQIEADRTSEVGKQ
UniProt Q8IDJ8, 1-583: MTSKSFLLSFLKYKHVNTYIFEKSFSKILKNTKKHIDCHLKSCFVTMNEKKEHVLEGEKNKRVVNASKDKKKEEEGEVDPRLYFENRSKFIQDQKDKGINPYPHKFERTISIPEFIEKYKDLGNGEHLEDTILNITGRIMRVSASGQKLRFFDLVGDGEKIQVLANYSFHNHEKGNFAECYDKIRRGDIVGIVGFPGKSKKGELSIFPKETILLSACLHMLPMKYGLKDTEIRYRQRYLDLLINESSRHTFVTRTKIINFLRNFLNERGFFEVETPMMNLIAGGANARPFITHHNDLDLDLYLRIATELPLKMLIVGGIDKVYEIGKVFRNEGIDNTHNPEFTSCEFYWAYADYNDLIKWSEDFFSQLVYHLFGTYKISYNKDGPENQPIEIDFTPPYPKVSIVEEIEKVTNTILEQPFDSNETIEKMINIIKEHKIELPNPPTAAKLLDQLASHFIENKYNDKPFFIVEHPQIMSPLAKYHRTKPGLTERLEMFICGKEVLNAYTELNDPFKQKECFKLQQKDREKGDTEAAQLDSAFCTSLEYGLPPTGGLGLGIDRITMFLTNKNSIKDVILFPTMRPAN

TcHisRS: 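Histidine-tRNA ligase, Trypanosoma cruzi CL Brener (UniProt Q4DA54). Enzyme assay of histidyl-tRNA synthetase; the read-out is not stated. Concentration: 30 µM. Higher reads as stronger inhibition (inferred: compounds with an IC50 in retests scored well above the rest). Size under these conditions: about 69,000 compounds, about 31 of them at 50% or above in at least one test.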
MtTrpRS: 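Enzyme assay of tryptophanyl-tRNA synthetase; the read-out is not stated. Target: Tryptophan-tRNA ligase, Mycobacterium tuberculosis (UniProt P9WFT3). Tested at 10 µM. Direction is not recorded; retested compounds ran higher, which suggests that high means inhibition. Of about 65,000 compounds tested this way, about 64 (0.098%) reached 50% or more in at least one test.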
Pks13 thioesterase: 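Polyketide synthase Pks13, Mycobacterium tuberculosis (UniProt I6X8D2). Enzyme assay of the thioesterase domain of polyketide synthase 13; the read-out is not stated. Compounds at 30 µM. Higher reads as stronger inhibition (inferred from which compounds were picked for retests). Size under these conditions: about 67,000 compounds, about 300 of them at 50% or above in at least one test.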
PfKRS1: 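Enzyme assay of the cytosolic lysyl-tRNA synthetase in 384-well plates, read by luminescence. Target: Lysine-tRNA ligase, Plasmodium falciparum 3D7 (UniProt Q8IDJ8). Tested at 30 µM. Direction is inferred from only a few compounds that gave an IC50; most scored high, so higher reads as stronger inhibition. Size under these conditions: about 69,000 compounds, about 49 of them at 50% or above in at least one test.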
Toxoplasma: 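Assay of Toxoplasma gondii numbers, read through their beta-galactosidase reporter with a colour substrate. Concentration: 10 µM. The record gives no direction; the compounds picked for IC50 retests had high values, so higher reads as fewer parasites. Size under these conditions: about 67,000 compounds, about 260 of them at 50% or above in at least one test.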

Values are the deposited “Percent Effect”, in %.
The record does not define 0% and 100%; most values in the screen are far below 50% and negative numbers occur (in some assays of this library far below -100).
This is an unselected part of the compounds tested.
A dash means the value is not listed here; it may have been measured.

Compound,TcHisRS,MtTrpRS,Pks13 thioesterase,PfKRS1,Toxoplasma
Cc1ccc(CN2CCc3onc(C(=O)NCCN(C)C)c3C2)o1.O=C(O)C(F)(F)F.O=C(O)C(F)(F)F,-,-,-,-,-14.46
Cc1ccc2nc(C(=O)N(C)[C@@H]3CC[C@@H](N4CCCC4)[C@@H]3O)cn2c1,9.579,-3.255,61.56,0.1993,-5.344
Cc1nc(N2CCN(C(=O)c3ccccc3)CC2)c2c(n1)c(C)nn2C,2.732,2.814,-26.03,4.793,-7.412
Cc1ncsc1CN1C[C@@H](OCc2ccncc2)[C@H]2OCCC[C@H]21,9.783,-2.294,-10.47,0.4673,-
Fc1ccc(OC2CCN(CCn3cncn3)CC2)cc1,4.95,0.08032,-2.417,4.918,6.811
Cc1ccc(OC2(C(=O)N(C)Cc3ccoc3)CCNCC2)cc1,5.978,-2.031,-26.43,7.183,3.846
CCc1noc(C(C)N2CCC(C)CC2)n1 (centres unmarked),4.52,-9.714,-11.31,1.683,-4.565
CNC(=O)NCC1CCC2(CCN(C(=O)c3ccccn3)CC2)CO1.O=C(O)C(F)(F)F (centres unmarked),-,-,-,-,-26.23
c1cnn(C2CN(c3ncnc4[nH]ccc34)C2)c1,9.392,-6.914,-31.8,14.95,2.754
[H][C@@]12CCN(Cc3ccc(F)cc3)C[C@]1([H])OCCN(c1cccnc1)C2=O,-,-,-,-,-41.62
CCNC(=O)NC(=O)C(C)Nc1ccccc1OCCOC (centres unmarked),6.122,-0.7819,-12.21,5.376,-23.12
CC(Cn1cccn1)NC(=O)NCc1ccc(OC2CCCC2)nc1 (centres unmarked),3.955,18.89,-22.39,-0.8518,1.905
CC(C)C(=O)N1CCC2(COCc3cnc(-c4cccnc4)nc32)C1 (centres unmarked),8.466,-,-,5.752,-8.271
CSc1cccc(CNC(=O)C2CC(=O)N(CCN(C)C)C2)c1 (centres unmarked),4.564,-5.506,-9.246,-2.314,-4.846
C[C@@H]1CN(Cc2cccnc2)C[C@]12CCN(CCN1CCCC1)C2=O.O=C(O)C(F)(F)F.O=C(O)C(F)(F)F.O=C(O)C(F)(F)F,-,-,-,-,-13.06
NC(=O)N1CCCN(Cc2cc(F)cc(Br)c2)CC1,4.969,-1.492,-10.81,-2.62,8.52
Cc1ncccc1CNCC1CCN(CCO)CC1,3.944,-7.796,-14.03,2.523,-9.639
[H][C@]12CCN(C(=O)C3CCC3)CC[C@@]1([H])S(=O)(=O)N(Cc1cccnc1)C2,-,-,-,-,1.787
[H][C@@]12CS(=O)(=O)C[C@]1([H])N(C(=O)c1ccc3c(c1)OCC(=O)N3)CCN2CC,-,-,-,-,5.33
Cc1ccc(S(=O)(=O)N(C)CC(C)O)c(F)c1 (centres unmarked),1.818,-5.737,1.112,0.423,-2.879
CCC(=O)N1CCN(CCn2cccn2)c2ncccc2C1,8.466,-,-9.545,3.101,-
CN1CCN(C)C2(CCN(Cc3ccc(C4CCCCO4)o3)CC2)C1 (centres unmarked),-2.89,-2.741,-29.51,1.719,4.092
COCCN(Cc1cnn(C)c1)C(=O)C1CCCN(C2CCOCC2)C1 (centres unmarked),6.154,4.717,0.7211,0.1066,20.92
Cc1nnc(C2Cc3ccccc3CN2Cc2nc(C(C)C)no2)o1 (centres unmarked),8.455,0,-8.815,0.6773,-1.619
COCC(=O)N1CCN(Cc2cc(F)cc(Br)c2)CC1,4.969,0.8136,-0.5946,1.44,-23.48
Cc1cccc(C(=O)N2CC(C(=O)NCC3CC3)C3(CCOCC3)C2)n1 (centres unmarked),5.376,5.179,-5.792,1.706,-
CCS(=O)(=O)N1CCOC2(CCCN(c3ccccn3)C2)C1.O=C(O)C(F)(F)F (centres unmarked),-,-,-,-,-3.211
CC(=O)NC1CCN(c2cc(-c3ccccc3)nc3c(C)c(C)nn23)C1 (centres unmarked),6.122,-3.906,0.9326,2.215,0.9699
Cl.c1ccc(-c2cc(CNCCCC3CCOC3)c3nnnn3c2)cc1 (centres unmarked),-,-,-,-,3.6
Nc1cc2c(nn1)CCN(C(=O)c1csc(-c3cccs3)n1)C2,21.79,-7.173,-26.8,5.936,-11.2
Cn1cnnc1S(=O)(=O)Cc1cc(Cl)c2c(c1)OCCO2,9.497,-1.767,3.776,0.5891,-12.25

2 of the entries, repeated:

CSc1cccc(CNC(=O)C2CC(=O)N(CCN(C)C)C2)c1 (centres unmarked) gave TcHisRS: 4.564%; MtTrpRS: -5.506%; Pks13 thioesterase: -9.246%; PfKRS1: -2.314%; Toxoplasma: -4.846%.
c1cnn(C2CN(c3ncnc4[nH]ccc34)C2)c1 gave TcHisRS: 9.392%; MtTrpRS: -6.914%; Pks13 thioesterase: -31.8%; PfKRS1: 14.95%; Toxoplasma: 2.754%.

Data taken from ChEMBL document CHEMBL3988442, “University of Dundee, Small-Polar-MMV Screening Library” (2021).